What all share (details): 10 µM; pre-incubation: 30-90 min
Assay [1] deals with Danio rerio larvae (5 dpf, TLF). The assay can be described thus: OMR-Perf (SSMD vs DMSO vehicle); higher = higher than vehicle (e.g. higher dark-flash O-bend response probability, or better optomotor performance).
Assay [2] has the same test system. The assay can be described thus: Prob-Test (SSMD vs DMSO vehicle); higher = higher than vehicle (e.g. higher dark-flash O-bend response probability, or better optomotor performance).
The test system is the same in assay [3]. The assay can be described thus: Prob-Naive (SSMD vs DMSO vehicle); higher = higher than vehicle (e.g. higher dark-flash O-bend response probability, or better optomotor performance).
Assay [4] has the same test system. The assay can be described thus: Prob-Train (SSMD vs DMSO vehicle); higher = higher than vehicle (e.g. higher dark-flash O-bend response probability, or better optomotor performance).

Some of the results follow. This data set is noisy: repeats of one test often differ as much as different tests do.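 Free-swimming zebrafish larvae were assessed for O-bend response probability to dark flashes (naive: first five; training: remaining flashes across four 60-flash blocks; test: later 60-flash block) and for OMR turning toward alternating leftward/rightward LED motion. Six treated larvae were compared against sixty 0.1% DMSO controls; hits required |SSMD|≥2.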

As to `CCOC(=O)CCNc1cc(N2CCc3ccccc3CC2)nc(-c2ccccn2)n1.Cl`, the OMR-Perf in assay [1] was -0.307. In assay [2], this compound came in with a Prob-Test of -0.772. The same compound gave a Prob-Naive in assay [3] of -0.257. Further, the Prob-Train in assay [4] was -1.15.
`CN1CCN(C2CCN(C(=O)Nc3cc(Oc4ccc(NC(=O)C5(C(=O)Nc6ccc(F)cc6)CC5)c(F)c4)ccn3)CC2)CC1` [Golvatinib (E7050)] came in with an OMR-Perf in assay [1] of 0.121. The same compound showed a Prob-Test in assay [2] of 0.0399. In addition, the Prob-Naive in assay [3] is 0.319. The compound also displayed a Prob-Train in assay [4] of 0.12.
With `O=C1c2c(O)cc(O)cc2O[C@H](c2cc(O)c(O)c(O)c2)[C@H]1O` [Dihydromyricetin], in assay [1], the OMR-Perf amounted to 0.153. Moreover, the Prob-Test in assay [2] was found to be 0.279. Besides, the Prob-Naive in assay [3] was 0.208. The same compound displayed a Prob-Train in assay [4] of 0.377.
As for `CC(C)c1cc(C(C)C)c(CC(=O)NS(=O)(=O)Oc2c(C(C)C)cccc2C(C)C)c(C(C)C)c1` [Avasimibe], the OMR-Perf in assay [1] came to 0.0506. Also, the Prob-Test in assay [2] amounted to 0.47. Besides, the Prob-Naive in assay [3] was -0.252. In assay [4], this compound yielded a Prob-Train of -0.501.
`COc1ccc(NS(=O)(=O)c2sc3ccc(Cl)cc3c2C)cc1N1CCNCC1` returned an OMR-Perf in assay [1] of -0.539. The same compound had a Prob-Test in assay [2] of 0.00832. This compound also returned a Prob-Naive in assay [3] of -0.069. In assay [4], this compound displayed a Prob-Train of -0.0757.
On the same counts, the results for `Cc1ccccc1CN1C2=NCCN2C(=O)C2=C1CCN(Cc1ccccc1)C2` are 0.872, -0.419, 0.0457 and -0.186.
`Oc1ccc([C@H]2COc3cc(O)ccc3C2)cc1` [Equol]: the OMR-Perf in assay [1] came out at 1.16. The compound further gave a Prob-Test in assay [2] of 0.648. In assay [3], this compound gave a Prob-Naive of 0.0385. The same compound yielded a Prob-Train in assay [4] of 0.649.
Consider `COc1cc(C(=O)NS(=O)(=O)c2ccccc2C)ccc1Cc1cn(C)c2ccc(NC(=O)OC3CCCC3)cc12` [Zafirlukast], for which the OMR-Perf in assay [1] was -0.552. In assay [2], this compound came in with a Prob-Test of -0.0274. Moreover, the Prob-Naive in assay [3] came to 0.454. This compound also yielded a Prob-Train in assay [4] of 0.153.
